Earlier results, collected in patent publication US20210387949A1, “NEW SELECTIVE MODULATORS OF INSECT NICOTINIC ACETYLCHOLINE RECEPTORS” (UNIVERSITE DE NANTES, priority 2018, published 2021).
Some results were stated once for a whole list of compounds, not compound by compound.

Test system: Honey bees Apis mellifera
Settings: literature values (Elbert 2000; Iwasa 2004); cited from earlier work

SMILES	LD50
C/C(=N\C#N)N(C)Cc1ccc(Cl)nc1 [Acetamiprid]	more than 7 μg/bee
N#C/N=C1\SCCN1Cc1ccc(Cl)nc1 [Thiacloprid]	more than 7 μg/bee
